In patent US20100254975A1 (Amgen, published 2010):
Residue numbers refer to the chain shown, from its start. Results are given in words; binding and its absence hold for the method and conditions named. Binding calls can cover weak binding; strength is not graded here. Values belong to the binder of their own block, whether it stands above or below them.

What was measured:
[1] = target: cynomologous monkey alpha4beta7 (cynomologous monkey); experiment: receptor saturation on T cells of dosed cynomolgus monkeys, flow cytometry
[2] = target: cynomologous monkey alpha4beta7 (cynomologous monkey); experiment: free-site staining with PE-27G8 on naive T cells of treated cynomolgus monkeys
[3] = target: cynomologous monkey alpha4beta7 (cynomologous monkey); experiment: flow cytometry on T cells of cynomolgus monkeys

B2: 2F12 (antibody, V domains shown)
VH: QVQLVQSGAEVKKPGASVKVSCKVSGYTVTDLSMHWVRQAPGKGLEWMGGFDPQDGETIYAQKFQGRVTMTEDTSTDTAYMELRSLRSEDTAVYYCTTESSSAWFDPWGQGTLVTVSS
VL: DIQMTQSPSSVFASVGDRVTITCRASQGISSWLAWYQQKPGKAPNLLIYGASSLQNGVPLRFSGSGSGTDFTLTISSLQPEDFATYYCQQANSFPWTFGQGTKVEIK
notes: Fully human monoclonal from XenoMouse (human IgG2 or IgG4); kappa light chain; also called 2F12K; 2F12H
binding [1]: binds
binding [2]: binds

B4: 17C8 (antibody, V domains shown)
VH: QVQLVESGGGLVKPGGSLRLSCAASGFTFSDYYMSWIRQAPGKGLEWLSYISNSGSAMYYADSVKGRFTISRDNARNSLYLQMNSLRAEDTAVYYCAREYSSGWFFFESWGQGTLVTVSS
VL: EIVMTQSPATLSVSPGERATLSCRASQSVSSNLVWYQQKPGQAPRLLIYGASTRATGIPARFSGSGSGTDFTLTISSLQSEDFAVYYCQQYDDWPPLTFGGGTTVEIK
notes: Fully human monoclonal from XenoMouse (human IgG2 or IgG4); kappa light chain; also called 17C8K; 17C8H
binding [1]: binds
binding [2]: binds

Continued, values first:

binding [1]: binds
binding [2]: binds
B1: 18A11 (antibody, V domains shown)
VH: B2 VH with V29L, T30S, M34I, R84S, R87K, T97A, E99G, A103S
VL: B2 VL with F12S, N45K, S53N, Q55E, N56S, L60S, T85N
notes: Fully human monoclonal from XenoMouse (human IgG2 or IgG4); kappa light chain; also called 18A11K; 18A11H

binding [3]: binds
B3: 27G8 (antibody, V domains shown)
VH: EVQLVESGGGLVQPGGSLRLSCAASGFTFSSYWMSWVRQASGKGLEWVANIKQDGSEKYYVDSVKGRFTISRDNAKNSLYLQMNSLRAEDTAVYYCAREGGYDWNYADYYGMDVWGQGTTVTVSS
VL: QSVLTQPPSVSEAPRQRVTISCSGSNSNIGNNPVNWYQLFPGRAPKLLIYHDDLLPSGVSDRFSGSRSGTSASLAISGLQSEDETDYYCTAWDDSLNGWVFGGGTKLTVL
notes: Fully human monoclonal from XenoMouse (human IgG2 or IgG4); lambda light chain; PE-conjugated in the cynomolgus study; also called 27G8L; 27G8H
